In article PMC8895740:
These are yes or no findings as the source states them, for the method shown. Binding seen in cells or lysates may run through a third protein. Some entries that bind do so weakly or less than the wild type.

The chains behind the UniProt entries cited, without tags or fusion partners. Residues count along the entry.
UniProt Q9BYB0: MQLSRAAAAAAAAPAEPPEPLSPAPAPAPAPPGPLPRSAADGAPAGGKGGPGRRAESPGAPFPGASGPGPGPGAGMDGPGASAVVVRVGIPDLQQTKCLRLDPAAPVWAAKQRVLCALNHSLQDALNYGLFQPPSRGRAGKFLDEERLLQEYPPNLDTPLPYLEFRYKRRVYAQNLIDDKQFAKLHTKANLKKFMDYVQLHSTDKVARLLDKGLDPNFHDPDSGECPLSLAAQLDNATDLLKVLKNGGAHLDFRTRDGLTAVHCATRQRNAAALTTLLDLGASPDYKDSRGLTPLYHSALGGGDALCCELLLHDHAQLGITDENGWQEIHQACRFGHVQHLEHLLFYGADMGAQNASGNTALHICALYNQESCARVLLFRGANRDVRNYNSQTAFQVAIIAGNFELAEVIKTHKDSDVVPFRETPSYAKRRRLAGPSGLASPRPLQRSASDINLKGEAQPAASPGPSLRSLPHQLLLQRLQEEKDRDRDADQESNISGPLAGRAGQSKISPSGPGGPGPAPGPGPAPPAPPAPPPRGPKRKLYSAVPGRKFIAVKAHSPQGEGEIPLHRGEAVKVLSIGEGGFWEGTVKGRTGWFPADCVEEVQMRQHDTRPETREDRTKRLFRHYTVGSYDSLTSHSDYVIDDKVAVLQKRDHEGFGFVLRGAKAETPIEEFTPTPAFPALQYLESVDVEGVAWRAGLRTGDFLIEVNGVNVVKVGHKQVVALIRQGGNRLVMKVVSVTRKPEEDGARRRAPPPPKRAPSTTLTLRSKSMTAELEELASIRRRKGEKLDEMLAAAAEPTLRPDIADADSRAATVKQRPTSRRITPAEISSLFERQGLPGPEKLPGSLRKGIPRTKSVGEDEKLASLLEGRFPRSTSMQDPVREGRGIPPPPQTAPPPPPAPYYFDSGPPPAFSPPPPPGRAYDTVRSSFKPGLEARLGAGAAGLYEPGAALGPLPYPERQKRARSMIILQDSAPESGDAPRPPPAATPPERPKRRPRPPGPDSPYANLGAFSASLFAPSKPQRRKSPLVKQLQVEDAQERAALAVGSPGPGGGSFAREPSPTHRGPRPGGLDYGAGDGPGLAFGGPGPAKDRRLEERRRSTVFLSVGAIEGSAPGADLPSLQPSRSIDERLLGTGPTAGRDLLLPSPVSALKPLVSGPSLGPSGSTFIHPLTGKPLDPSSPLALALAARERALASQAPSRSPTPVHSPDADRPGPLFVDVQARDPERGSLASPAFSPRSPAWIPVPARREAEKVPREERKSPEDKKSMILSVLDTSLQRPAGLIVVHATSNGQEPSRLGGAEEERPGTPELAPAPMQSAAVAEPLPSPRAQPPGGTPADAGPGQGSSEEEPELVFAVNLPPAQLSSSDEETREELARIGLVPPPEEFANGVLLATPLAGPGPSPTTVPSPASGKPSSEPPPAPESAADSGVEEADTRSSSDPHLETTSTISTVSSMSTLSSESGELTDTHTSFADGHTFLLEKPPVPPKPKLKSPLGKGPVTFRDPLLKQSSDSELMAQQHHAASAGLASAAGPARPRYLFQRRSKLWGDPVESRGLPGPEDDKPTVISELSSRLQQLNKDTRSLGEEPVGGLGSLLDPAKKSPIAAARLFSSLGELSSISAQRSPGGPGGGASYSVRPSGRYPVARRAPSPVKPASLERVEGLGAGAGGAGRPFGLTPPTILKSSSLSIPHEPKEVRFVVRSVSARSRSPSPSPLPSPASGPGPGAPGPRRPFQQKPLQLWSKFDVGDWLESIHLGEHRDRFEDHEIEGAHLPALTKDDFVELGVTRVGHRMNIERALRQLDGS
UniProt Q9NZ94, residues 38-848: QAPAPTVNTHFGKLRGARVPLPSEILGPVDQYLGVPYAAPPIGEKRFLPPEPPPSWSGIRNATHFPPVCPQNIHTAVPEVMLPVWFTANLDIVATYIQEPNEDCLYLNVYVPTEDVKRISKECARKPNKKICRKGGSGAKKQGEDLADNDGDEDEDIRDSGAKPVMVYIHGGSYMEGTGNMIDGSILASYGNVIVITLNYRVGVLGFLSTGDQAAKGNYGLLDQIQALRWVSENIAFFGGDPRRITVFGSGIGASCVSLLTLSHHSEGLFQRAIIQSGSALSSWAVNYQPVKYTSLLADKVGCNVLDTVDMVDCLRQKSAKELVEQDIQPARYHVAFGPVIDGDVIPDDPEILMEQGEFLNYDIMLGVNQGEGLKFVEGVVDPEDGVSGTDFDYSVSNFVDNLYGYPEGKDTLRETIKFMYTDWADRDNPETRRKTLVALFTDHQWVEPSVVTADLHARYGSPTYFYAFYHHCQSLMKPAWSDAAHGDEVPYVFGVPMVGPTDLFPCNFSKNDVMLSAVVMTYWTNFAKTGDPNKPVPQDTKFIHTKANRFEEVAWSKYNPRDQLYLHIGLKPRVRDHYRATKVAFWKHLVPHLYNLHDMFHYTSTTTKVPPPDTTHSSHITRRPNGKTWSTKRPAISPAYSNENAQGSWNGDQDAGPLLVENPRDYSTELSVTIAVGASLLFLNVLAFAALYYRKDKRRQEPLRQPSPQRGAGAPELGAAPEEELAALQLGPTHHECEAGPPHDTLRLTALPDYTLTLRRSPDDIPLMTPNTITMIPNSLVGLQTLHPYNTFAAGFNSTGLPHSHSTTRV

Target: Myc-Shank3-WT (UniProt Q9BYB0)
Experiment: co-IP; HEK293 cells co-transfected with HA-NLGN3-WT or HA-NLGN4X-WT and Myc-Shank3-WT; which protein was precipitated is not told

Substance | binding
HA-tagged wildtype neuroligin-3 (from UniProt Q9NZ94 38-848) | binds
HA-tagged wildtype neuroligin-4X (from UniProt Q8N0W4 42-816) | binds
